In US20250144075A1, “Melanin for treating lipofuscin-associated diseases” (Katairo GmbH, priority 2022, published 2025):

Test: Oxidation/degradation of A2E in acetonitrile solution under room light, A2E quantified by LCMSMS
Conditions: room temperature, 300 lux, A2E starts at 10 μM

Structure (SMILES): COCCO[C@@H]1c2ccn3c(C)c(C)nc3c2N[C@H](c2ccccc2)[C@H]1O [soraprazan]
- A2E μM 0 h (time after mixing 0 h): 10 µM
- A2E μM 2 h (time after mixing 2 h): 8.29 µM
